Experimental data: publication PMC6152055

System: PnbHLH1 (Panax notoginseng)
Test: EMSA
Conditions: EMSA kit (PIERCE) standard procedure, room temperature; salt and pH not stated; recombinant protein; protein details: His (pET-28a, NdeI/SalI); label: biotin

AATGATTATTTTGGGGAGATTATTTTGGGGAGATTATTGGGA (double strand) [mE-box mutant probe]
binding result: no binding

The exact form of at least one protein or probe is not confirmed. A negative result means that nothing was seen under these conditions.
